The experiment concerns the target FLAG-HSF1 DEL183–214 (human) (UniProt Q00613). As to the kind of experiment: co-IP; HEK293 co-transfected with WT HA-HSF1 and FLAG-HSF1 constructs; anti-FLAG IP, HA WB.

Sequences of proteins named here, by UniProt entry; tags and fusion partners are left off.
UniProt Q00613: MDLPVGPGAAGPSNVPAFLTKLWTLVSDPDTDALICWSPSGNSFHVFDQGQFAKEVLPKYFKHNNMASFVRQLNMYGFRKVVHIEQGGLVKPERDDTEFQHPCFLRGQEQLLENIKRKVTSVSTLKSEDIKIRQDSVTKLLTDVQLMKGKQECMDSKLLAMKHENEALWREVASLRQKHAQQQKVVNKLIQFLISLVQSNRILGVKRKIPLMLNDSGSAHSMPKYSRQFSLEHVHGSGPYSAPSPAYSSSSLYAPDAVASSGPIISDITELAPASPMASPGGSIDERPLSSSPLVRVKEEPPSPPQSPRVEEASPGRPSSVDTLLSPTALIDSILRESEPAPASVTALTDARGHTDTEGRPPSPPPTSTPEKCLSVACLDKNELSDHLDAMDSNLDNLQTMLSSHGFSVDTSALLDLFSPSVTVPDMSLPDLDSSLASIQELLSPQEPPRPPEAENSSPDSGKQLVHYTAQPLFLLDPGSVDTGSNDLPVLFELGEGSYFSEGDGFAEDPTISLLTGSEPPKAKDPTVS

No constants are given. Whether binding was seen depends on the method and setting. Binding seen in cells or lysates may run through a third protein.

Take “HA-HSF1 (wild type Heat shock factor 1) (from UniProt Q00613 1-529)”: the binding entry is given as “no binding”.

Source of the values: PMC5934406.
